Test results from patent publication US12569472B2, “PPARγ agonists for treatment of kidney disease” (The Research Institute at Nationwide Children's Hospital, priority 2020, dated 2026).
For at least one compound, name, drawing or mass did not settle the structure.

Experiments:
Assay type in all cases: in vivo, rat
[1] = tested on: glomerular gene expression (Nphs1, Nrf2, Trpc6, Pparg); experiment: Glomerular gene expression by qRT-PCR; conditions: PAN rats
Procedure: (§1) This study was approved by the Institution Animal Care and Use Committee at Nationwide Children's Hospital, and their guidelines were followed when performing the experiments. Male Wistar rats were intravenously (IV) injected with puromycin aminonucleoside (PAN) (Sigma-Aldrich, St. Louis, Mo.) (50 mg/kg) on Day 0, which induced proteinuria, while control rats were given IV injections of saline. The rats were treated by oral gavage with Pioglitazone (Alfa Aesar, Tewksbury, Mass.) (10 mg/kg), GQ-16 (40 mg/kg), or a sham vehicle daily. GQ-16 and Pio dosages were determined based on previous studies, and GQ-16 was synthesized as previously described. Amato et al., The Journal of biological chemistry, 287: 28169-28179 (2012). Spot urine and serum were collected, and body weights were recorded throughout the study. […] Kerlin et al., Journal of the American Society of Nephrology: JASN, 26: 3009-3019 (2015). Kidneys were harvested, and the glomeruli were isolated using the sequential sieving method. Agrawal et al., Sci Rep, 6: 24392 (2016). Liver and white adipose tissue (WAT) epididymal fat were collected and flash frozen in liquid nitrogen.
(§2) Total RNA was extracted from isolated WAT epididymal fat and liver tissue samples using the RNeasy kit (Qiagen, Germantown, MD), following the manufacturer's instructions. Tissue samples in lysis buffer were placed in lock tubes with stainless-steel disruption beads and lysed at 30.0 Hz for 4 minutes using the Qiagen TissueLyser (Germantown, MD), followed by RNA isolation from the resulting lysate. Total RNA was isolated from glomeruli tissue samples using the mirVana™ Isolation Kit (Invitrogen, Carlsbad, CA), according to the manufacturer's instructions. Yield and purity were calculated for all isolated RNA samples by measuring the absorbance at 260, 280, and 230 nm and the ratios (both) with a spectrophotometer. 500 ng-1 μg of RNA was subjected to DNase (Invitrogen, Carlsbad, CA) digestion at room temperature for 15 minutes, which was then inactivated with 25 mM EDTA at 65° C. for 10 min. RNA was reverse transcribed using the iScript cDNA Synthesis Kit (Bio-Rad, Hercules, CA) according to the manufacturer's instructions. cDNA was used for quantitative reverse transcription-polymerase chain reaction (qRT-PCR) using gene specific and house-keeping primers. SYBR green (Bio-Rad, Hercules, Calif.) qRT-PCR was performed on the Applied Biosystems 7500 Real-Time PCR System. The PCR conditions were 95° C. for 10 minutes, 40× (95° C. for 15 seconds, 60° C. for 1 minute), followed by a melt curve to ensure specific products. The annealing temperature was at 60° C. for all genes except Pgc1a, Pparg, and Cd36 for which 52° C. annealing temperature was used. […]

[2] = tested on: hepatic gene expression (Pcsk9, Abca1, F2, SerpinC1); experiment: Hepatic gene expression by qRT-PCR; conditions: PAN rats (PAN ~30 fold up)
Procedure: This study was approved by the Institution Animal Care and Use Committee at Nationwide Children's Hospital, and their guidelines were followed when performing the experiments. Male Wistar rats were intravenously (IV) injected with puromycin aminonucleoside (PAN) (Sigma-Aldrich, St. Louis, Mo.) (50 mg/kg) on Day 0, which induced proteinuria, while control rats were given IV injections of saline. The rats were treated by oral gavage with Pioglitazone (Alfa Aesar, Tewksbury, Mass.) (10 mg/kg), GQ-16 (40 mg/kg), or a sham vehicle daily. GQ-16 and Pio dosages were determined based on previous studies, and GQ-16 was synthesized as previously described. […] Spot urine and serum were collected, and body weights were recorded throughout the study. […]
Total RNA was extracted from isolated WAT epididymal fat and liver tissue samples using the RNeasy kit (Qiagen, Germantown, MD), following the manufacturer's instructions. […] Yield and purity were calculated for all isolated RNA samples by measuring the absorbance at 260, 280, and 230 nm and the ratios (both) with a spectrophotometer. […] RNA was reverse transcribed using the iScript cDNA Synthesis Kit (Bio-Rad, Hercules, CA) according to the manufacturer's instructions. cDNA was used for quantitative reverse transcription-polymerase chain reaction (qRT-PCR) using gene specific and house-keeping primers. […]

[3] = tested on: white adipose tissue gene expression (Ap2, Adipoq, Adipsin, Cd36, Pgc1a, Pparg); experiment: White adipose tissue (epididymal fat) gene expression by qRT-PCR; conditions: PAN rats
Procedure: as §1, §2

CCc1ccc(CCOc2ccc(CC3SC(=O)NC3=O)cc2)nc1 (stereo not drawn) [Pio, pioglitazone, reference compound]
glomerular Nphs1 expression ([1]; vs PAN): modestly | glomerular Nrf2 expression ([1]; vs PAN): did not | glomerular Pparg expression ([1]; not significant (p=0.06)): tended to be greater | glomerular Trpc6 expression ([1]; trend only): reduction | hepatic Pcsk9 expression [2]: restored to control levels | WAT Cd36 expression [3]: no significant differences | WAT Pgc1a expression [3]: trend in increase | WAT Pparg expression [3]: induced | WAT Δ exon 5 splice variant of Pparg, normalized to total Pparg [3]: decreased
